From patent publication US20240360186A1, “Treatment Of Integrin-Related Disorders With Stapled Peptides” (Institute For Cancer Research d/b/a The Research Institute …, priority 2021, published 2024)
Results are given in words; binding and its absence hold for the method and conditions named. Some results given as binding are weak or reduced against the parent protein; the word gives no strength.

Amino acid sequences for entries named in this document (tags omitted). Residues count along the entry.
Talin head domain (residues 1-430) (P26039, residues 1-430): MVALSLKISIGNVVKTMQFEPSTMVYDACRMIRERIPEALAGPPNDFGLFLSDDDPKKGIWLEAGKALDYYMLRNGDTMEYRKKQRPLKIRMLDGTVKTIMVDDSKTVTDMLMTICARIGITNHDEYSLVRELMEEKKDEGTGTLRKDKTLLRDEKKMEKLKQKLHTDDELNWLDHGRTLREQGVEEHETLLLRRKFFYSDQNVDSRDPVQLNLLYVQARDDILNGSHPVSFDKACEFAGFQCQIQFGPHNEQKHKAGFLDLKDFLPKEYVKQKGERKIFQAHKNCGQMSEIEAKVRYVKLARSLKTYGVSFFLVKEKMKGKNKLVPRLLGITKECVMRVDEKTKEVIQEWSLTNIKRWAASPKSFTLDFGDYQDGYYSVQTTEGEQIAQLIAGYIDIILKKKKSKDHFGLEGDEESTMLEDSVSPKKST
Talin rod R7R8 domains (P26039, residues 1357-1653): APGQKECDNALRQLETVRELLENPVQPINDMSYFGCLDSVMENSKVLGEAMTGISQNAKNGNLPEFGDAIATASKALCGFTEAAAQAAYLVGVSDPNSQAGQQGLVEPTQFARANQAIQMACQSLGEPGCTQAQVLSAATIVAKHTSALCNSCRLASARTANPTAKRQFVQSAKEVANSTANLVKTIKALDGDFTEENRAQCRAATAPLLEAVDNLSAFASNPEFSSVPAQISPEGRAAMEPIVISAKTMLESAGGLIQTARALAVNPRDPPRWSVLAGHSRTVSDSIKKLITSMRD

How the values were obtained:
[1] = target: Talin head domain (residues 1-430) (UniProt P26039); experiment: fluorescence polarization; fluorophore-labelled peptide titrated with talin head (residues 1-430)
Talin rod R7R8 domains = target: T1, Talin rod R7R8 domains (UniProt P26039 1357-1653, limits assumed); experiment: fluorescence polarization; fluorophore-labelled peptide titrated with talin R7R8
T1 construct: domain: R7R8; also called talin R7R8; talin rod double-domain R7R8
Procedure: To assess the binding affinities of S-TBS with talin, the Kd of TBS and S-TBS peptides with talin rod R7R8 and talin head (residues 1-430) were measured using fluorophore-labeled peptides and recombinantly expressed, purified talin proteins by FP assays. […] This gain of affinity may be attributed to the C8 staple as it stabilizes the helical structure of TBS, and the enhanced hydrophobic interaction between S-TBS and talin rod. The enhanced binding of S-TBS to talin further validates the design strategy of using stapled peptides as a potent competitive inhibitor.
Fluorescent Polarization: Mixtures were prepared of purified talin proteins at a series concentration (R7R8: 0.2 μM to 20 μM; THD/b3-THD: 5 μM to 100 μM), or buffer only, with 20 nM FITC-labeled S-TBS (New England Peptide) in a buffer containing 20 mM HEPES, pH 7.5, 100 mM NaCl, and 2 mM DTT. After five minutes of incubation, 20 μl of the reaction mix was added to individual wells of a 384-well assay plate (Corning) and then measured fluorescence polarization at room temperature using a plate reader. A […] as emission polarization filters. FP signals were normalized against buffer-only background and then fit to a single-site (saturating) binding model using SigmaPlot (Systat Software).

binding [1]: binds
binding (Talin rod R7R8 domains): binds
Binder: NEDIDQMFSTLLGEMDLLTQS (fluorophore label (5' 6-FAM, fluorescein) in the FP and cell assays) [TBS peptide (unstapled talin-binding site peptide of RIAM)]
